From paper PMC8981650 come the findings set out here.

Amino acid sequences for entries named in this document (tags omitted).
UniProt Q99L02: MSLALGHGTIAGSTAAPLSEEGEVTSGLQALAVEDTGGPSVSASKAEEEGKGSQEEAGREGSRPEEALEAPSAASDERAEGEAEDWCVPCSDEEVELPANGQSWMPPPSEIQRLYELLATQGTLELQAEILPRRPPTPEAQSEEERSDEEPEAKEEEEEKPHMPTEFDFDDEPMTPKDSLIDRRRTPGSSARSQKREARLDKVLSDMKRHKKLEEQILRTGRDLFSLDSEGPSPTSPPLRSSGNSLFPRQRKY
UniProt P05627: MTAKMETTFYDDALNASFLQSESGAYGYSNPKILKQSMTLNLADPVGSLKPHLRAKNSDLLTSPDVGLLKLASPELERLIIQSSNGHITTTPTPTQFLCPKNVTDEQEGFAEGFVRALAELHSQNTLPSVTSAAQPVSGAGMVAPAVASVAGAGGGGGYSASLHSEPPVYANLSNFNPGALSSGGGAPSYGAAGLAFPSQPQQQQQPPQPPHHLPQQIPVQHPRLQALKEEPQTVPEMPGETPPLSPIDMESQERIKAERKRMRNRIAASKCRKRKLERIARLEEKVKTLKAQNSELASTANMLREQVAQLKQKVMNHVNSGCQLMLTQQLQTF

Assay [1] addresses endogenous PA1 of TM4 Sertoli cells (mouse (endogenous in TM4)) (UniProt Q99L02). The experiment in a line: co-IP; TM4 cells in 6-well plate transfected with 0.5 ug pCS2-Myc-Jun; endogenous PA1 precipitated with PA1 antibody; blotted with anti-PA1 and anti-JUN.
For assay [2], the target named is Flag-PA1 (Pax transactivation domain-interacting protein (PTIP) associated protein 1), mouse, from pRK-Flag-Pa1 (mouse) (UniProt Q99L02). The experiment in a line: co-IP; TM4 cells co-transfected with pCS2-Myc-Jun and pRK-Flag-Pa1; lysate in TAP buffer (50 mM HEPES-KOH pH 7.5, 100 mM KCl, 0.1% NP-40); precipitated with anti-FLAG antibody and Protein A-Sepharose at 4 C; blotted with anti-MYC and anti-FLAG.

No constants are given. Whether binding was seen depends on the method and setting. Binding seen in cells or lysates may run through a third protein. Some binding calls cover weakened binding; strength is not graded here.

On to “Myc-JUN, mouse, from pCS2-Myc-Jun (from UniProt P05627 1-334)”, for which the binding result in assay [1] and in assay [2] was “binds” each time.
